One assay addresses T1, Haus3 (X. laevis) (UniProt Q6DCY9).
T1 sequence: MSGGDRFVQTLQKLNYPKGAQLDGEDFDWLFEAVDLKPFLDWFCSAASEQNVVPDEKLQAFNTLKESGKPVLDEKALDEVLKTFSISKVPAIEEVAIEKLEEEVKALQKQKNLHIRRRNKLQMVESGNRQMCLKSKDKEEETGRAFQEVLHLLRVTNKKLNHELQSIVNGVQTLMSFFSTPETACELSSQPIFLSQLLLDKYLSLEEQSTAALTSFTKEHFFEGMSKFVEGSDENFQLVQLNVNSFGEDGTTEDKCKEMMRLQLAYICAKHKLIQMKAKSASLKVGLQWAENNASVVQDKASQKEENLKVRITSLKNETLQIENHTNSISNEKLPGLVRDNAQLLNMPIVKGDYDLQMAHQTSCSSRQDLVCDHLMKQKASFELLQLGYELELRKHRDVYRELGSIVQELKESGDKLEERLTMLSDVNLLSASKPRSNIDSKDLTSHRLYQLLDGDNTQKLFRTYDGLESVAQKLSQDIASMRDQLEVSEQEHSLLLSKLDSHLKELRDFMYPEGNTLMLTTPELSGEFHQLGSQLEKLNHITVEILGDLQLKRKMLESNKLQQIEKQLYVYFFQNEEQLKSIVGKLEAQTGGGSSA
Kind of assay: cryo-EM structure; single-particle cryo-EM of the purified augmin octamer (Haus6 1-430), 0.05% NP-40, thin carbon film grids; 6.9 Å map; AlphaFold2-Multimer models of T-II and T-III rigid-body fit into the map; both purified.

The target of assay [1] is T2, Haus3 with C-terminal GFP-TwinStrep (X. laevis) (UniProt Q6DCY9).
T2 sequence: T1 sequence
Kind of assay: co-purification of co-expressed subunits (StrepTactin, SEC) + negative stain EM; T-III subunits co-expressed in Sf9, one carrying C-terminal GFP-TwinStrep; StrepTactin Superflow, elution with 2.5 mM d-desthiobiotin, Superose 6 Increase in CSF-XB; 150 nM on carbon grids, 0.75% uranyl acetate, 2D class averages.

The target in the next assay is T3, Haus8 (X. laevis) (UniProt Q0IHJ3).
T3 sequence: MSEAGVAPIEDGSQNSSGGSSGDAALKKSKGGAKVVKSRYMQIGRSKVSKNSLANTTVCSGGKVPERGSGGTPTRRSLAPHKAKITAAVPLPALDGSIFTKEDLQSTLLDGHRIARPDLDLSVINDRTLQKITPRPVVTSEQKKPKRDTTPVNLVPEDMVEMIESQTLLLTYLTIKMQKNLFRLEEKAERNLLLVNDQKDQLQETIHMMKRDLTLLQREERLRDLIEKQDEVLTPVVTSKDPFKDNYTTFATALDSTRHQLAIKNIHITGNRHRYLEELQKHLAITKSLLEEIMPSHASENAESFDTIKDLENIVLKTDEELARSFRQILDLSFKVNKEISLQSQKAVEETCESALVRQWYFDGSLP
As to the kind of experiment: cryo-EM structure; single-particle cryo-EM of the purified augmin octamer (Haus6 1-430), 0.05% NP-40, thin carbon film grids; 6.9 Å map; AlphaFold2-Multimer models of T-II and T-III rigid-body fit into the map; both purified.

A further assay has as its target Haus2 (X. laevis). The assay is described as above.
In another assay the target is Haus7 (X. laevis). The assay is described as above.
A further assay deals with Haus5 (X. laevis). Described as above.
The target in assay [2] is Haus5 with C-terminal GFP-TwinStrep (X. laevis). Kind of assay: co-purification of co-expressed subunits (StrepTactin, SEC) + negative stain EM; T-III subunits co-expressed in Sf9, one carrying C-terminal GFP-TwinStrep; StrepTactin Superflow, elution with 2.5 mM d-desthiobiotin, Superose 6 Increase in CSF-XB; 150 nM on carbon grids, 0.75% uranyl acetate, 2D class averages.

Assay [3] deals with Haus4 with C-terminal GFP-TwinStrep (X. laevis). Described as above.
The target of assay [4] is Haus1 with C-terminal GFP-TwinStrep (X. laevis). Described as above.

Results are given in words; binding and its absence hold for the method and conditions named. A result given as binding can be weak or reduced; the word gives no strength. For part of these data: Binding seen in cells or lysates may run through a third protein. For part of these data: Tags and fused reporters may be left off the sequences shown.

For the molecule Haus1 (X. laevis), the binding result (with Haus3 (X. laevis); in assay [1]) was “binds” throughout.
For Haus4 (X. laevis), the binding entry (with Haus3 (X. laevis); in assay [1]) was “binds” in each case.
As for Haus5 (X. laevis), in assay [1], the binding entry is “binds”.
Regarding “Haus6^1–430 (X. laevis) (domain or fragment)”, in the assay with Haus8 (X. laevis), the binding result was “binds”.

B1: Haus8 (protein, UniProt Q0IHJ3 1-367)
chain: T3 sequence
As for B1, the binding result in the assay with Haus2 (X. laevis) and with Haus7 (X. laevis) was “binds” each time.

B2: Haus3 (protein, UniProt Q6DCY9 1-597)
chain: T1 sequence
As to B2, the binding entry (with Haus5 (X. laevis); in assay [2]; in assay [3]; in [4]) was “binds” each time.

These data come from paper PMC10102177.
